According to patent publication US20250090677A1, “ANTI-CDH6 ANTIBODIES AND ANTIBODY-DRUG CONJUGATES THEREOF” (MULTITUDE THERAPEUTICS INC., priority 2021, published 2025):
No constants are given. Whether binding was seen depends on the method and setting. Some entries that bind do so weakly or less than the wild type.

Columns and labels:
[1] = target: cyno monkey CDH6-ECD-His (cyno monkey); test: ELISA, antigen coated at 1 ug/mL, 3-fold antibody dilutions, HRP anti-human antibody, OD450
[2] = target: cyno monkey CDH6-ECD-His (cyno monkey); test: ELISA, antigen coated
[3] = target: cyno monkey CDH6-ECD-His (cyno monkey); test: BLI (Octet), antibody on AHC sensor

Measured: binding

B1: CL069707-H1L1 (antibody, human IgG1, kappa, V domains shown)
VH: EVQLVESGGGLVQPGGSLRLSCAASGFTFTTYAMNWVRQAPGKGLEWVARIRIKNNNYATYYADSVTDRFTISRDDSKNSLYLQMNSLKTEDTAVYYCVRPDYGNYGLAYWGQGTLVTVSS
VL: DIQLTQSPSSLSASVGDRVTITCSASSSISSHYLHWYQQKPGKSPKLLIYRSFYLASGVPSRFSGSGSGTDFTLTISSLQPEDFATYYCQQDIVPLTFGQGTKLEIKR
binds: all assays above
